Primary screen of a compound library

Source: ChEMBL document CHEMBL3988442, “University of Dundee, Small-Polar-MMV Screening Library” (2021).

Mtb glucose medium: 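Growth of Mycobacterium tuberculosis over 3 days (7H9 medium with glucose and tyloxapol); the read-out is not stated. Concentration: 500 µM. Higher reads as more growth inhibition (inferred: compounds with an IC50 in retests scored well above the rest). Size under these conditions: about 18,000 compounds, about 1,400 of them at 50% or above in at least one test.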
Mtb cholesterol medium: 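Growth of Mycobacterium tuberculosis over 4 days (cholesterol / DPPC medium with tyloxapol); the read-out is not stated. Compounds at 500 µM. Direction is inferred from retests: higher values go with more growth inhibition. Size under these conditions: about 18,000 compounds, about 900 of them at 50% or above in at least one test.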

The filed quantity is “Percent Effect” (%).
How 0% and 100% were set is not recorded. Most values in the screen are low, and negative values occur.
Compounds were drawn at random from those tested, without regard to their results.

SMILES | Mtb glucose medium | Mtb cholesterol medium
Cc1nc2ccccc2n1CCCN | 6.036% | -12.84%
CC(C)NC1CCCc2cccnc21 (stereo unspecified) | 6.96% | -7.637%
Nc1cnccc1OCc1ccccc1 | 35.96% | 11.03%
N#Cc1cccc(CNc2ccncc2F)c1 | -8.361% | -12.16%
CCOC(=O)c1n[nH]c2c1CCCC2 | 42.06% | 29.71%
CS(=O)(=O)N1CCCC1c1cccc(F)c1 (stereo unspecified) | 0.1947% | -0.18%
Cc1n[nH]c(SCC(=O)NC2CCCCC2)n1 | 11.01% | 11.16%
O=C(NCCc1cn[nH]c1)[C@H](O)C1CCCCC1 | 3.676% | 1.793%
CN(C)C(CNC(=O)c1[nH]ncc1Br)c1ccsc1 (stereo unspecified) | 7.723% | 0.1784%
CC(C)n1cc(Br)cc1C(=O)NC1=NCCS1 | 68.02% | 71.15%
CN(CC(=O)NCC1CC1)C1(C(N)=O)CCCC1 | 32.76% | 32.29%
CCC1(CO)CCCN(CCn2cc(Cl)cn2)C1 (stereo unspecified) | 58.07% | 83.03%
N[C@@H](Cc1ccccn1)c1ccccc1 | 0.1579% | -20.26%
O=C(NC1CNC1)C1CCC1 | -2.356% | -17.23%
CN(CCOc1ccccc1)C(=O)c1cnn(C)c1N | 29.39% | 5.508%
CCNC(=O)NC1CCNC1 (stereo unspecified) | 0.6407% | -4.042%
CN(CC(=O)N(C)C)Cc1ccc(F)cc1Cl | 6.243% | 0.3099%
CC(C)C(=O)NC(C)c1ccc2c(c1)OCCO2 (stereo unspecified) | 19.89% | 8.17%
CNCc1cn2c(n1)CCCC2 | -3.843% | -24.45%
Cn1cc(Br)c(CN)n1 | 1.427% | -21.64%
COc1ccc(C)cc1CN1CCN(S(N)(=O)=O)CC1 | 79.12% | 65.66%
CN1N=C(C(=O)NCCc2cccs2)CCC1=O | 35.42% | 34.24%
CC(=O)N1CC(NC(=O)CCc2cc(F)ccc2Br)C1 | 28.45% | 6.404%
CCC(CC)(CNC(=O)Cc1cc(C)on1)S(C)(=O)=O | -8.299% | -13.06%
COCCNC(=O)CN(C)Cc1ccco1 | 17.72% | 20.6%
Cc1c[nH]c(CN(C)C(=O)Cc2nonc2C)n1 | 7.666% | 5.665%
Cc1ccc(C(=O)NCC(c2ccco2)N(C)C)cn1 (stereo unspecified) | 22.73% | 4.504%
CC(NC(=O)CN1CCCC1)c1nc2ccccc2[nH]1 (stereo unspecified) | 41.32% | 13.08%
O=C(Cc1c[nH]c2ccccc12)N1CCCC(CO)C1 (stereo unspecified) | 17.86% | -4.952%
CC1(C)CNCCC(=O)C1 | 66.58% | 29.47%
COc1cc(-c2nc(CN)no2)cc(OC)c1OC | 19.29% | 7.73%
CN1CCN(C(=O)COc2ccc(F)cc2F)CC1 | 29.01% | 18.99%
Nc1nccnc1Br | 1.056% | -0.3312%
COc1ccc(NC(=O)N2CCOCC2C)cc1 (stereo unspecified) | 18.32% | 1.293%
CCCOC1CCCNCC1 (stereo unspecified) | 24.65% | -9.382%
CNC(=O)c1cccc(NC(C)C(=O)NCC(C)C)c1 (stereo unspecified) | 14.07% | 10.84%
O=C(Cn1ccnc1)Nc1ccc(F)cc1 | -0.03455% | -14.54%
Cc1ccc(S(=O)(=O)Nc2cccc(C)n2)cc1 | 20.29% | 19.65%
Cn1ccnc1CCNC(=O)CN1CCCCCC1=O | 1.543% | 4.502%
CCNc1nnc(SCc2csc(CS(C)(=O)=O)n2)s1 | 14.04% | 5.569%
COC(=O)CCNC(=O)c1ccc(C#N)cc1 | 11.61% | 9.432%
COc1ccc(CNC(=O)CNC2CCCSC2)cc1 (stereo unspecified) | 67.93% | 66.05%
COCCN1CCN(Cc2nc3ccccc3o2)CC1 | 19.12% | 9.292%
COCc1cc(CNC(=O)[C@@H](N)C(C)(C)C)n[nH]1 | 8.358% | 7.636%

Some entries from above, unchanged:

{"smiles": "CCNC(=O)NC1CCNC1", "stereo": "stereo unspecified", "Mtb glucose medium": 0.6407, "Mtb cholesterol medium": -4.042}
{"smiles": "COCCN1CCN(Cc2nc3ccccc3o2)CC1", "Mtb glucose medium": 19.12, "Mtb cholesterol medium": 9.292}
{"smiles": "COc1ccc(CNC(=O)CNC2CCCSC2)cc1", "stereo": "stereo unspecified", "Mtb glucose medium": 67.93, "Mtb cholesterol medium": 66.05}
{"smiles": "CN1CCN(C(=O)COc2ccc(F)cc2F)CC1", "Mtb glucose medium": 29.01, "Mtb cholesterol medium": 18.99}